Taken from: PubChem BioAssay AID1259405 (NCATS, 2018)
Screen: 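Mouse-designed siRNAs used to find CHO productivity engineering targets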 (primary screen). Cell system: Chinese hamster CHO-K1 ovary cells with stable secreted eGFP expression. Knock-down reagent: single siRNA against mouse genes, 0.8 pmol siRNA per well (2 µl of 400 nM stock). Time to read-out: 3 days. Measured: 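Per-well intracellular GFP measured by laser scanning cytometry, plus viability from ATP luminescence, each relative to plate median of non-targeting control wells, in %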. Scale: GFP, % of control: higher = more GFP per well, higher productivity; viability (ATP), % of control: higher = more viable cells (more ATP). Active means: 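a knock-down is called active if GFP reaches 120% or more of non-targeting control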.
This is a random part of about 50,000 reagents tested. About 4,000 of all reagents (8%) count as active. 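Mouse siRNA library applied to hamster cells; one well for each siRNA.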 Unmarked entries are inactive. The numbers tell different reagents against one gene apart.

target	reagent	GFP, % of control	viability (ATP), % of control
Gars1 (GeneID 353172)	1	65.4	81.8
Gars1 (GeneID 353172)	2	171 (active)	133
Gars1 (GeneID 353172)	3	94.5	96.5
Gars1 (GeneID 353172)	4	96.4	84
Gars1 (GeneID 353172)	5	65.4	81.8
Kdm3b (GeneID 277250)	1	131 (active)	117
Kdm3b (GeneID 277250)	2	82.3	80.4
Kdm3b (GeneID 277250)	3	143 (active)	116
Fbh1 (GeneID 50755)	1	79.1	73.2
Fbh1 (GeneID 50755)	2	89.4	68.2
Fbh1 (GeneID 50755)	3	87.8	118
Mapkapk2 (GeneID 17164)	1	68	74.6
Mapkapk2 (GeneID 17164)	2	52.7	31.1
Mapkapk2 (GeneID 17164)	3	101	96.1
Gipc3 (GeneID 209047)	1	250 (active)	149
Gipc3 (GeneID 209047)	2	57.5	53.4
Gipc3 (GeneID 209047)	3	69.2	55
Cd209a (GeneID 170786)	1	50.2	59.5
Cd209a (GeneID 170786)	2	68.7	89.7
Cd209a (GeneID 170786)	3	44.1	42.3
Tmem242 (GeneID 70544)	1	82.7	84.3
Tmem242 (GeneID 70544)	2	70.7	69.7
Tmem242 (GeneID 70544)	3	59.3	72.2
Stambp (GeneID 70527)	1	105	115
Stambp (GeneID 70527)	2	97.3	96.9
Hnf1b (GeneID 21410)	1	103	116
Hnf1b (GeneID 21410)	2	65.6	64.3
Hnf1b (GeneID 21410)	3	102	99.6
Tmem269 (GeneID 75180)	1	125 (active)	87.7
Tmem269 (GeneID 75180)	2	75.2	49.2
Tmem269 (GeneID 75180)	3	79.3	78.1
Parm1 (GeneID 231440)	1	133 (active)	83.9
Parm1 (GeneID 231440)	2	73.1	97.7
Parm1 (GeneID 231440)	3	132 (active)	134
